Results as given in publication PMC10540051.
Results are given in words; binding and its absence hold for the method and conditions named. Binding seen in cells or lysates may run through a third protein. Binding can be weak; no strength is given. Sequences can lack the tags named with a protein.

Experiments:
Test in all cases: FRET or BRET; FLIM: HeLa cells transfected with BDNF-GFP (donor) cocultured with HeLa, HEK293 or SH-SY5Y cells transfected with tdTomato-tagged receptors or tdTomato-GluA2 (acceptor), fixed with 4% PFA; lifetime of GFP measured pixel by pixel; reference: HeLa cells expressing BDNF-GFP alone
SorCS1b-tdTomato (human) = molecular target: SorCS1b-tdTomato (human)
SorLA-tdTomato (human) = molecular target: SorLA-tdTomato (human)
SorCS2-tdTomato (murine) = molecular target: SorCS2-tdTomato (murine)
SorCS3-tdTomato (human) = molecular target: SorCS3-tdTomato (human)
[1] = molecular target: SorCS1c-α-tdTomato (human)

binding (SorCS1b-tdTomato (human)): binds
binding (SorLA-tdTomato (human)): binds
binding (SorCS2-tdTomato (murine)): binds
binding (SorCS3-tdTomato (human)): binds
binding [1]: binds
B1: BDNF-GFP (ligand, UniProt P23560 19-247)
chain: APMKEANIRGQGGLAYPGVRTHGTLESVNGPKAGSRGLTSLADTFEHVIEELLDEDQKVRPNEENNKDADLYTSRVMLSSQVPLEPPLLFLLEEYKNYLDAANMSMRVRRHSDPARRGELSVCDSISEWVTAADKKTAVDMSGGTVTVLEKVPVSKGQLKQYFYETKCNPMGYTKEGCRGIDKRHWNSQCRTTQSYVRALTMDSKKRIGWRFIRIDTSCVCTLTIKRGR
